One experiment deals with GRP75 (human) (UniProt P38646). Briefly: GST pull-down from 22Rv.1 and LNCaP lysates, mass spectrometry; validated by Western blot (FIG. 12). Background: In western blotting, separated proteins are transferred to a membrane and probed.
For a further experiment, the target named is GRP78 (human) (UniProt P11021). The description is as above.

Chains of the proteins cited; added tags and fusions are not shown. Residues count along the entry.
UniProt P38646, residues 47-679: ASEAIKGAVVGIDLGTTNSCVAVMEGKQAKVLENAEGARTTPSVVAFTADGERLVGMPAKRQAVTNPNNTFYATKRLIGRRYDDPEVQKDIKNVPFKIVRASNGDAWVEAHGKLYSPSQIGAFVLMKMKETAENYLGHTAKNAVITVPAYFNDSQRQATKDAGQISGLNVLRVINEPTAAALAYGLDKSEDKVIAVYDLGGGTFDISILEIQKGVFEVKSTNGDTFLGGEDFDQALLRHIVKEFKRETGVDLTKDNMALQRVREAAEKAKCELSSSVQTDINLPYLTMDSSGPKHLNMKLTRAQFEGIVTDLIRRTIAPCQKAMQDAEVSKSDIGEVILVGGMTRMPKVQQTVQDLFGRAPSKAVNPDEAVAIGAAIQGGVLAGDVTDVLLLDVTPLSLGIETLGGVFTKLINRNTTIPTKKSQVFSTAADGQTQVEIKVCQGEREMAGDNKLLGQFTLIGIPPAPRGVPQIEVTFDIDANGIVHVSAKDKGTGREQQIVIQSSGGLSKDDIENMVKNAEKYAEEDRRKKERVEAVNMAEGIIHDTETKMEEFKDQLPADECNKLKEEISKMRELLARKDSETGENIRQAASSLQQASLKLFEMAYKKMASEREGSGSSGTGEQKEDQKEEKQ
UniProt P11021, residues 19-654: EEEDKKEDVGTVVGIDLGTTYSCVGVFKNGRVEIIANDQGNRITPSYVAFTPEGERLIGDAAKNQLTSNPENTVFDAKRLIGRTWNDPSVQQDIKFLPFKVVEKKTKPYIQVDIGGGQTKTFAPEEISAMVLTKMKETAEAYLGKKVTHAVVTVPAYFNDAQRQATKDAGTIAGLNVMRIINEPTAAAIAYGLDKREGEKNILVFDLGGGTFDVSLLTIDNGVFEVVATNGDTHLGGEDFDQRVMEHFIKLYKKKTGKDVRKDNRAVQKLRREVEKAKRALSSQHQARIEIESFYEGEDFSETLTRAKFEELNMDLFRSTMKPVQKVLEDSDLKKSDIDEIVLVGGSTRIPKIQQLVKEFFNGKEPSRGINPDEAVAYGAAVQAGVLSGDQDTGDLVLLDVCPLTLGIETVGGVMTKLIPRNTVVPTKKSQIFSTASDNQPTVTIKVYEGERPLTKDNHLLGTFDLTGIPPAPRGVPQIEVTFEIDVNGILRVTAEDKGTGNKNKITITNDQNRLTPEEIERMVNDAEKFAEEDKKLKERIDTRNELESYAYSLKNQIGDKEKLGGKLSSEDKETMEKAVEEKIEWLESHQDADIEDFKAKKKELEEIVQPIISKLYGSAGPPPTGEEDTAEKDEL

Results are given in words; binding and its absence hold for the method and conditions named. In cells and extracts the contact can be indirect. A yes stands for co-enrichment or nearness to the bait. Other partners may have been found.

Regarding “GST-Bag-1L-(202-241) (from UniProt P08515 1-218)”, the binding entry in the experiment with GRP75 (human) and with GRP78 (human) was “binds” throughout.

As for “GST-Bag-1L-(202-269) (from UniProt P08515 1-218)”, the binding result in the experiment with GRP75 (human) and with GRP78 (human) was “binds” in each case.

The values above are taken from US20110190218A1 (KARLSRUHE INSTITUTE OF TECHNOLOGY, published 2011).
